Results from the supplement of paper PMC12823440, “Inhibitors supercharge kinase turnover through native proteolytic circuits” (Nature, 2025).
Structures can show the parent of a compound that is named as a salt. Some of the results follow. The calls rarely recur for the same compound in another form.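 In K562 cells expressing nanoluciferase-fused kinases, luminescence was recorded at 4 h intervals between 2 and 18 h, normalized as percent of control with DMSO at 100% and a positive control at 0%. A significant (2 sigma) signal drop marks a time point as decreased. The authors' rule for a hit is not shown and takes in more than the number of time points.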

By UniProt entry, the sequences of proteins in these tests, tags left out. Where a name states a change or a piece, a line headed by the entry shows the natural chain unless it says otherwise.
UniProt P28482, whole entry: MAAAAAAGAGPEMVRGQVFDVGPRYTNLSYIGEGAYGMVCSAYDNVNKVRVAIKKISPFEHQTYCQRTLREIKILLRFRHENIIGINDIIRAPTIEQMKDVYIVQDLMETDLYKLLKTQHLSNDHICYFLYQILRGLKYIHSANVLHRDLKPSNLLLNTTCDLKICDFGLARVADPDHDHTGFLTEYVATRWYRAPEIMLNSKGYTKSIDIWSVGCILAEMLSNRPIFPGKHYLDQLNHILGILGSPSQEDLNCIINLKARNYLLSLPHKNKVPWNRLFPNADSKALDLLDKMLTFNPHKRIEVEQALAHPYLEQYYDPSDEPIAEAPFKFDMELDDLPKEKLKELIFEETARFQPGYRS
UniProt P31152, whole entry: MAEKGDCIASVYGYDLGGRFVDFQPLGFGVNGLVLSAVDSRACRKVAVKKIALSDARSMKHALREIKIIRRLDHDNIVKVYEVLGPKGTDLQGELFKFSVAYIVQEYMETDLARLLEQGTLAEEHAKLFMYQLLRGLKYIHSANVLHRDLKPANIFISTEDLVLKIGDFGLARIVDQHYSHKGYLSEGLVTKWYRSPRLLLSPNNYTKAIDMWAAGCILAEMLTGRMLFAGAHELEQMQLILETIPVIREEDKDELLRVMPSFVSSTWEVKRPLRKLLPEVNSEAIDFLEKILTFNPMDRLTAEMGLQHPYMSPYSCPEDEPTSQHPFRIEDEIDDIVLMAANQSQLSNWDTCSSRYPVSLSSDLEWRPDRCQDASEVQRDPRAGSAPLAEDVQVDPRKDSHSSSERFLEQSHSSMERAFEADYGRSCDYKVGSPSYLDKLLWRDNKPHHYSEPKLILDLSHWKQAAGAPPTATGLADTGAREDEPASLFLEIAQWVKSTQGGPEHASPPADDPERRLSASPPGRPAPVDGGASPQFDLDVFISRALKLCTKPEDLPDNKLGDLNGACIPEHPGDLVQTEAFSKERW
UniProt P49137, whole entry, looked up: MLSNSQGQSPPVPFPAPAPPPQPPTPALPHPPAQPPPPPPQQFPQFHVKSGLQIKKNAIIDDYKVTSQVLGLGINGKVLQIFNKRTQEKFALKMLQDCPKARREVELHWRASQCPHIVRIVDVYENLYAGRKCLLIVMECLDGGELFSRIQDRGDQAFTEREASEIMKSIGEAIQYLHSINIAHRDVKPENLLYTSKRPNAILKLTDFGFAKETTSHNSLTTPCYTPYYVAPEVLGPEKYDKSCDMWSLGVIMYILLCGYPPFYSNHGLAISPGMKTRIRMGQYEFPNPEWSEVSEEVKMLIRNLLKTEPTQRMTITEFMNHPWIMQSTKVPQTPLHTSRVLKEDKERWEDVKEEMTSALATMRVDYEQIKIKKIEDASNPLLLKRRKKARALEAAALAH
UniProt Q9BUB5: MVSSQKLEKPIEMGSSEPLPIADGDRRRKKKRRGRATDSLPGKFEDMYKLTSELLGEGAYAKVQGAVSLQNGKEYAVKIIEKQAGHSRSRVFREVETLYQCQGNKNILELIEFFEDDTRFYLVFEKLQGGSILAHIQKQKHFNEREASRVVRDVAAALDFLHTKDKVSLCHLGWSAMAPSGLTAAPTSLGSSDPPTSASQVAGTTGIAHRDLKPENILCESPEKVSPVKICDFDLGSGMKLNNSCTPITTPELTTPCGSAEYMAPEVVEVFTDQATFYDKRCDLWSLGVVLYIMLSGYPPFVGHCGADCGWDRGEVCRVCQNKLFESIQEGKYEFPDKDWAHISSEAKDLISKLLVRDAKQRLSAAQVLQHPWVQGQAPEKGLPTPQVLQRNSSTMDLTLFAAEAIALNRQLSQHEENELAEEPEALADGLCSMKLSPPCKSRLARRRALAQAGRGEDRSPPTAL
UniProt Q16288, whole entry, looked up: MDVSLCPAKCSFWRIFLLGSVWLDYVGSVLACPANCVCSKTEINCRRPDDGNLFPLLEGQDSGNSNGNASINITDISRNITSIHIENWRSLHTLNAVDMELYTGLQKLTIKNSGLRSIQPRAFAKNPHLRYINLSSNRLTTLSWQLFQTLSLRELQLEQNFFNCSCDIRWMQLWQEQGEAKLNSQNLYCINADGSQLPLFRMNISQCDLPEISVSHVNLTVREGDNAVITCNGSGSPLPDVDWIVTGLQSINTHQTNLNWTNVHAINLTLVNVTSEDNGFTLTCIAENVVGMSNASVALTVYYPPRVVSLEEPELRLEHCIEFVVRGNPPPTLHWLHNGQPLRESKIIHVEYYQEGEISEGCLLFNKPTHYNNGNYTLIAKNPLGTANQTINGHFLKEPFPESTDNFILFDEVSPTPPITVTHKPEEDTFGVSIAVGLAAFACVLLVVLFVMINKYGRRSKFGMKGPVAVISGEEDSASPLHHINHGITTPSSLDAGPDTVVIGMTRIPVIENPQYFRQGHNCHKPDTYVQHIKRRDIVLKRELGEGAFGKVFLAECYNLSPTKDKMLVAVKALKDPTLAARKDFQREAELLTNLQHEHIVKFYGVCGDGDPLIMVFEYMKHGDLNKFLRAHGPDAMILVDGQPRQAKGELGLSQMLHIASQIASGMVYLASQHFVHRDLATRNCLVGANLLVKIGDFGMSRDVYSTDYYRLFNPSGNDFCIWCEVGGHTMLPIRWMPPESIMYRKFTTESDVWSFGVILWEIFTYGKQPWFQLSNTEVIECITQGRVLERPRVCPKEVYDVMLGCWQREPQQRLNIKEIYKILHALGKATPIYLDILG
UniProt O96013: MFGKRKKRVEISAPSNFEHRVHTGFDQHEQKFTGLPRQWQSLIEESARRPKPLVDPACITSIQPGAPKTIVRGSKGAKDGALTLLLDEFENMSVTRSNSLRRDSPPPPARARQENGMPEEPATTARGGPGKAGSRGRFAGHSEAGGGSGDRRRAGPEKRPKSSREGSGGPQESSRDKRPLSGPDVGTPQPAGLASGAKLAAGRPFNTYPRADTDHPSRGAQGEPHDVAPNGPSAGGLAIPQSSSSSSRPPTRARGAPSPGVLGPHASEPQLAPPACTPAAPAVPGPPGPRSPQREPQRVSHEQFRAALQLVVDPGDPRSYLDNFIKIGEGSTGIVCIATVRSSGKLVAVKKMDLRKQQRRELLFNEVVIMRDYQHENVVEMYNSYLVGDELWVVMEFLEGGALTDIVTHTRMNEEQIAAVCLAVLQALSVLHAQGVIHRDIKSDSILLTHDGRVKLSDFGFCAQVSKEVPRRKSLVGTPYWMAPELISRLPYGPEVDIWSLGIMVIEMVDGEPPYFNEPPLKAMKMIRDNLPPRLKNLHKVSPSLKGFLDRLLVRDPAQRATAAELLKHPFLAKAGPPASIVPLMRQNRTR
UniProt Q96KB5: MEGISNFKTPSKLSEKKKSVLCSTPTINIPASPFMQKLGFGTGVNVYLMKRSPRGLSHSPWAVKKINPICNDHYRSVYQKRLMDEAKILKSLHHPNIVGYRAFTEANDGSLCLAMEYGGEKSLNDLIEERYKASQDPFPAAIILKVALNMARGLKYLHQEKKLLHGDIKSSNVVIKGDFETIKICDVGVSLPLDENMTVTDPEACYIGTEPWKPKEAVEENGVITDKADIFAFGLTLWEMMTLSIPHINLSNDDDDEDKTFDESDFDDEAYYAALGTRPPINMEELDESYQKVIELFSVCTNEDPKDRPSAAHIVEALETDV
UniProt P09619, whole entry: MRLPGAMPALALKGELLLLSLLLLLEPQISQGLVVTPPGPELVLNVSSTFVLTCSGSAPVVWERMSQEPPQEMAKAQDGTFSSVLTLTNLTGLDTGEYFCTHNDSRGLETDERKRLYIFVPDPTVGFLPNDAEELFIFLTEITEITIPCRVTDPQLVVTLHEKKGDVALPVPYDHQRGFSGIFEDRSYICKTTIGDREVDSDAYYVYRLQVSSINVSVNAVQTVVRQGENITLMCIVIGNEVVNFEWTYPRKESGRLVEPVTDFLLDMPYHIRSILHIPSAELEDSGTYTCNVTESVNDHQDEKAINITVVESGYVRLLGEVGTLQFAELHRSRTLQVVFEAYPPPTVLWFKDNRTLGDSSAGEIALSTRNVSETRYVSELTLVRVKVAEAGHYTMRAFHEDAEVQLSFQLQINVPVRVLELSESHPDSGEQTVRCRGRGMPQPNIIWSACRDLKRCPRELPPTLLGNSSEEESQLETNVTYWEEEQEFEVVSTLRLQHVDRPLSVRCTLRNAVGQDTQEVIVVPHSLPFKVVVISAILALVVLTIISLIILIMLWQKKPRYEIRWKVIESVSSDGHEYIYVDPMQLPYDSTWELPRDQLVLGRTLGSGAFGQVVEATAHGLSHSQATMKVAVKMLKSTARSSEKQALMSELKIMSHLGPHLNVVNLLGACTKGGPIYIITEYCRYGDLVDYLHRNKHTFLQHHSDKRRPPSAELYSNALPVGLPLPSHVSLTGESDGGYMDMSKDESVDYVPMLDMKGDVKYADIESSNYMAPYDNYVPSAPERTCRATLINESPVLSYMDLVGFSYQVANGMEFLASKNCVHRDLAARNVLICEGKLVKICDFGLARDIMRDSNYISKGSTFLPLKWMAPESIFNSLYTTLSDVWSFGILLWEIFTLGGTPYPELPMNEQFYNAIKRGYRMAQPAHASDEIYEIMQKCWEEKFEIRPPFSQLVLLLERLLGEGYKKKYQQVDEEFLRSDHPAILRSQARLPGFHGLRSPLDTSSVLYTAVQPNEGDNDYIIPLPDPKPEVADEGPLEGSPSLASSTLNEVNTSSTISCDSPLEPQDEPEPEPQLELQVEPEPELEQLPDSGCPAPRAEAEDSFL
UniProt Q15118, whole entry, looked up: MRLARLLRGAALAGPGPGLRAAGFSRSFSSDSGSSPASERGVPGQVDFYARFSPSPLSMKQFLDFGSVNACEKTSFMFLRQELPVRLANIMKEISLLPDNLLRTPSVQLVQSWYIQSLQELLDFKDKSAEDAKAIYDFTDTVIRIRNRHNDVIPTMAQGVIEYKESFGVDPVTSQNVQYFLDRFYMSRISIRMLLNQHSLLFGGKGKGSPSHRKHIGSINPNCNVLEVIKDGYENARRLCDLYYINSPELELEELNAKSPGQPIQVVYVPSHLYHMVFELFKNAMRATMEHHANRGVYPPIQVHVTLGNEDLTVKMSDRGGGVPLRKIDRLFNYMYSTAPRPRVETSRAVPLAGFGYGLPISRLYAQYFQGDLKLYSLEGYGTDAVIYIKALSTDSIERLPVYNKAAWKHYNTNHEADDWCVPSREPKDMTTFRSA
UniProt O15530: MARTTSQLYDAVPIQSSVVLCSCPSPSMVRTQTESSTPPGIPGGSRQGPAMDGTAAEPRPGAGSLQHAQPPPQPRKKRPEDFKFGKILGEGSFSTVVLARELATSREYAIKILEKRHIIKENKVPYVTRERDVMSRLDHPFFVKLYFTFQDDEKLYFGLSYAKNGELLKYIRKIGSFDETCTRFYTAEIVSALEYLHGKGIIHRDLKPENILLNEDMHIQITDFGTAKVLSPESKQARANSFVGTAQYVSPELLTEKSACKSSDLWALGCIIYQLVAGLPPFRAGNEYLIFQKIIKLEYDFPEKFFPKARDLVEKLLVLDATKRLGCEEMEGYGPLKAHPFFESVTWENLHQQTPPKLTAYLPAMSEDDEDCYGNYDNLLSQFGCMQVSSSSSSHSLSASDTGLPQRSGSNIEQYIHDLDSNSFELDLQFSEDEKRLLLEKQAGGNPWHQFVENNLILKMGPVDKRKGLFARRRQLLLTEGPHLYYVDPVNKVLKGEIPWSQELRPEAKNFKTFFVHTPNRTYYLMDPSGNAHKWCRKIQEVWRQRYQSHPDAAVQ
UniProt Q9UBF8: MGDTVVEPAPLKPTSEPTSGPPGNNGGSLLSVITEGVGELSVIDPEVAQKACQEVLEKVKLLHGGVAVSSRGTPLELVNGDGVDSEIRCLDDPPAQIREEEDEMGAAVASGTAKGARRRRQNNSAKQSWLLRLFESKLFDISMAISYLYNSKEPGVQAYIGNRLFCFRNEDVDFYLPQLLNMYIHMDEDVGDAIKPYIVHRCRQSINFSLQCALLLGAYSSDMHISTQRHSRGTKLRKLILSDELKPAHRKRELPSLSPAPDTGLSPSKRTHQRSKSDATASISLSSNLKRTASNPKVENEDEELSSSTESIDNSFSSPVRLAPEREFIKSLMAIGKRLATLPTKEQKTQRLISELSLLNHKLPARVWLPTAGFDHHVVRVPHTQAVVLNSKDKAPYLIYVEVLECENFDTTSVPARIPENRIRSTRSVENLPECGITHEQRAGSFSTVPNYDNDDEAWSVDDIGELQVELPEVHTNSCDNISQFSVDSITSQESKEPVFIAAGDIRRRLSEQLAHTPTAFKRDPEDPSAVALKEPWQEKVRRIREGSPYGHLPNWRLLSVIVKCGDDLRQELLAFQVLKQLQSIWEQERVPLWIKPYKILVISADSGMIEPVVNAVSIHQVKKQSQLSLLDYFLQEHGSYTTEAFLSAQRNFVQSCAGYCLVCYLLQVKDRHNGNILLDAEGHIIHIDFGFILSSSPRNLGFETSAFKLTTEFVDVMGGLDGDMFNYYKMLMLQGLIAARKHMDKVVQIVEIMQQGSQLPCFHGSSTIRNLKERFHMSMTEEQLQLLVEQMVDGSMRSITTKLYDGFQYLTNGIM

Experiments:
Experiment in all cases: kinase-Nluc reporter destabilization hit call (1 = scored as downregulated) (binary); higher = compound decreases kinase abundance
Details in all cases: K562, 2-18 h
MAPK1 = MAPK1 (UniProt P28482)
MAPK4 = MAPK4 (UniProt P31152)
MAPKAPK2 = MAPKAPK2 (UniProt P49137)
MKNK1 = MKNK1 (UniProt Q9BUB5)
NTRK2 = NTRK2 (UniProt Q16620)
NTRK3 = NTRK3 (UniProt Q16288)
PAK4 = PAK4 (UniProt O96013)
PBK = PBK (UniProt Q96KB5)
PDGFRB = PDGFRB (UniProt P09619)
PDK1 = PDK1 (UniProt Q15118)
PDPK1 = PDPK1 (UniProt O15530)
PIK4CA = PIK4CA (UniProt P42356)
PIK4CB = PIK4CB (UniProt Q9UBF8)
PLK1 = PLK1 (UniProt P53350)
PRKAA1 = PRKAA1 (UniProt Q13131)
PRKCA = PRKCA (UniProt P17252)
PTK2 = PTK2 (UniProt Q05397)
PTK2B = PTK2B (UniProt Q14289)
RAF1 = RAF1 (UniProt P04049)
[1] = biological target: RAF1_S257L (clone: RAF1_mut) (UniProt P04049)

Measured: kinase-Nluc reporter destabilization hit call

CN1CCCN(C(=O)c2cccc(-c3ccc(/C=C4/C(=O)Nc5ccc(Cl)cc54)o3)c2)CC1 [CX-6258 (hydrochloride)]
inactive: MAPK1; 2.5 µM 0 | MAPK4; 2.5 µM 0 | MAPKAPK2; 2.5 µM 0 | MKNK1; 2.5 µM 0 | NTRK2; 2.5 µM 0 | NTRK3; 2.5 µM 0 | PAK4; 2.5 µM 0 | PBK; 2.5 µM 0 | PDGFRB; 2.5 µM 0 | PDK1; 2.5 µM 0 | PDPK1; 2.5 µM 0 | PIK4CA; 2.5 µM 0 | PIK4CB; 2.5 µM 0 | PLK1; 2.5 µM 0 | PRKAA1; 2.5 µM 0 | PRKCA; 2.5 µM 0 | PTK2; 2.5 µM 0 | PTK2B; 2.5 µM 0 | RAF1; 2.5 µM 0 | [1]; 2.5 µM 0

O=C(Nc1cnn2ccc(N3CCC[C@@H]3c3cc(F)ccc3F)nc12)N1CC[C@H](O)C1 [Larotrectinib sulfate]
inactive: MAPK1; 10 µM 0 | MAPK4; 10 µM 0 | MAPKAPK2; 10 µM 0 | MKNK1; 10 µM 0 | NTRK2; 10 µM 0 | NTRK3; 10 µM 0 | PAK4; 10 µM 0 | PBK; 10 µM 0 | PDGFRB; 10 µM 0 | PDK1; 10 µM 0 | PDPK1; 10 µM 0 | PIK4CA; 10 µM 0 | PIK4CB; 10 µM 0 | PLK1; 10 µM 0 | PRKAA1; 10 µM 0 | PRKCA; 10 µM 0 | PTK2; 10 µM 0 | PTK2B; 10 µM 0 | RAF1; 10 µM 0 | [1]; 10 µM 0

Oc1cccc(-c2nc(N3CCOCC3)c3oc4ncccc4c3n2)c1 [PI-103 (Hydrochloride)]
inactive: MAPK1; 2.5 µM 0 | MAPK4; 2.5 µM 0 | MAPKAPK2; 2.5 µM 0 | MKNK1; 2.5 µM 0 | NTRK2; 2.5 µM 0 | NTRK3; 2.5 µM 0 | PAK4; 2.5 µM 0 | PBK; 2.5 µM 0 | PDGFRB; 2.5 µM 0 | PDK1; 2.5 µM 0 | PDPK1; 2.5 µM 0 | PIK4CA; 2.5 µM 0 | PIK4CB; 2.5 µM 0 | PLK1; 2.5 µM 0 | PRKAA1; 2.5 µM 0 | PRKCA; 2.5 µM 0 | PTK2; 2.5 µM 0 | PTK2B; 2.5 µM 0 | RAF1; 2.5 µM 0 | [1]; 2.5 µM 0

Cc1cccc(/C=N/Nc2cc(N3CCOCC3)nc(OCCc3ccccn3)n2)c1 [Apilimod (mesylate)]
inactive: MAPK1; 10 µM 0 | MAPK4; 10 µM 0 | MAPKAPK2; 10 µM 0 | MKNK1; 10 µM 0 | NTRK2; 10 µM 0 | NTRK3; 10 µM 0 | PAK4; 10 µM 0 | PBK; 10 µM 0 | PDGFRB; 10 µM 0 | PDK1; 10 µM 0 | PDPK1; 10 µM 0 | PIK4CA; 10 µM 0 | PIK4CB; 10 µM 0 | PLK1; 10 µM 0 | PRKAA1; 10 µM 0 | PRKCA; 10 µM 0 | PTK2; 10 µM 0 | PTK2B; 10 µM 0 | RAF1; 10 µM 0 | [1]; 10 µM 0

COc1ccc(S(=O)(=O)N(CCO)c2ccccc2CN(C)C/C=C/c2ccc(Cl)cc2)cc1 [KN-93 (hydrochloride)]
inactive: MAPK1; 2.5 µM 0 | MAPK4; 2.5 µM 0 | MAPKAPK2; 2.5 µM 0 | MKNK1; 2.5 µM 0 | NTRK2; 2.5 µM 0 | NTRK3; 2.5 µM 0 | PAK4; 2.5 µM 0 | PBK; 2.5 µM 0 | PDGFRB; 2.5 µM 0 | PDK1; 2.5 µM 0 | PDPK1; 2.5 µM 0 | PIK4CA; 2.5 µM 0 | PIK4CB; 2.5 µM 0 | PLK1; 2.5 µM 0 | PRKAA1; 2.5 µM 0 | PRKCA; 2.5 µM 0 | PTK2; 2.5 µM 0 | PTK2B; 2.5 µM 0 | RAF1; 2.5 µM 0 | [1]; 2.5 µM 0

Cn1ncc(Cl)c1-c1cc(C(=O)N[C@H](CN)Cc2cccc(F)c2)sc1Cl [Afuresertib (hydrochloride)]
inactive: MAPK1; 10 µM 0 | MAPK4; 10 µM 0 | MAPKAPK2; 10 µM 0 | MKNK1; 10 µM 0 | NTRK2; 10 µM 0 | NTRK3; 10 µM 0 | PAK4; 10 µM 0 | PBK; 10 µM 0 | PDGFRB; 10 µM 0 | PDK1; 10 µM 0 | PDPK1; 10 µM 0 | PIK4CA; 10 µM 0 | PIK4CB; 10 µM 0 | PLK1; 10 µM 0 | PRKAA1; 10 µM 0 | PRKCA; 10 µM 0 | PTK2; 10 µM 0 | PTK2B; 10 µM 0 | RAF1; 10 µM 0 | [1]; 10 µM 0

CNC(=O)c1ccccc1Nc1cc(Nc2ccc(N3CCOCC3)cc2OC)ncc1C(F)(F)F [PND-1186 (hydrochloride)]
inactive: MAPK1; 10 µM 0 | MAPK4; 10 µM 0 | MAPKAPK2; 10 µM 0 | MKNK1; 10 µM 0 | NTRK2; 10 µM 0 | NTRK3; 10 µM 0 | PAK4; 10 µM 0 | PBK; 10 µM 0 | PDGFRB; 10 µM 0 | PDK1; 10 µM 0 | PDPK1; 10 µM 0 | PIK4CA; 10 µM 0 | PIK4CB; 10 µM 0 | PLK1; 10 µM 0 | PRKAA1; 10 µM 0 | PRKCA; 10 µM 0 | PTK2; 10 µM 0 | PTK2B; 10 µM 0 | RAF1; 10 µM 0 | [1]; 10 µM 0

Cc1cc(Nc2ncc(Cl)c(Nc3ccccc3S(=O)(=O)C(C)C)n2)c(OC(C)C)cc1C1CCNCC1 [Ceritinib]
inactive: MAPK1; 2.5 µM 0 | MAPK4; 2.5 µM 0 | MAPKAPK2; 2.5 µM 0 | MKNK1; 2.5 µM 0 | NTRK2; 2.5 µM 0 | NTRK3; 2.5 µM 0 | PAK4; 2.5 µM 0 | PBK; 2.5 µM 0 | PDGFRB; 2.5 µM 0 | PDK1; 2.5 µM 0 | PDPK1; 2.5 µM 0 | PIK4CA; 2.5 µM 0 | PIK4CB; 2.5 µM 0 | PLK1; 2.5 µM 0 | PRKAA1; 2.5 µM 0 | PRKCA; 2.5 µM 0 | PTK2; 2.5 µM 0 | PTK2B; 2.5 µM 0 | RAF1; 2.5 µM 0 | [1]; 2.5 µM 0

COc1cc2c(-c3cnn4cc(N5CCC(N6CCN(C)CC6)CC5)cnc34)ccnc2cc1F
inactive: MAPK1; 10 µM 0 | MAPK4; 10 µM 0 | MAPKAPK2; 10 µM 0 | MKNK1; 10 µM 0 | NTRK2; 10 µM 0 | NTRK3; 10 µM 0 | PAK4; 10 µM 0 | PBK; 10 µM 0 | PDGFRB; 10 µM 0 | PDK1; 10 µM 0 | PDPK1; 10 µM 0 | PIK4CA; 10 µM 0 | PIK4CB; 10 µM 0 | PLK1; 10 µM 0 | PRKAA1; 10 µM 0 | PRKCA; 10 µM 0 | PTK2; 10 µM 0 | PTK2B; 10 µM 0 | RAF1; 10 µM 0 | [1]; 10 µM 0

3 structures already listed, arranged by number of heavy atoms, smallest number first.
COc1cc2c(-c3cnn4cc(N5CCC(N6CCN(C)CC6)CC5)cnc34)ccnc2cc1F
inactive: MAPK1; 10 µM 0 | MAPK4; 10 µM 0 | MAPKAPK2; 10 µM 0 | MKNK1; 10 µM 0 | NTRK2; 10 µM 0 | NTRK3; 10 µM 0 | PAK4; 10 µM 0 | PBK; 10 µM 0 | PDGFRB; 10 µM 0 | PDK1; 10 µM 0 | PDPK1; 10 µM 0 | PIK4CA; 10 µM 0 | PIK4CB; 10 µM 0 | PLK1; 10 µM 0 | PRKAA1; 10 µM 0 | PRKCA; 10 µM 0 | PTK2; 10 µM 0 | PTK2B; 10 µM 0 | RAF1; 10 µM 0 | [1]; 10 µM 0

CNC(=O)c1ccccc1Nc1cc(Nc2ccc(N3CCOCC3)cc2OC)ncc1C(F)(F)F [PND-1186 (hydrochloride)]
inactive: MAPK1; 10 µM 0 | MAPK4; 10 µM 0 | MAPKAPK2; 10 µM 0 | MKNK1; 10 µM 0 | NTRK2; 10 µM 0 | NTRK3; 10 µM 0 | PAK4; 10 µM 0 | PBK; 10 µM 0 | PDGFRB; 10 µM 0 | PDK1; 10 µM 0 | PDPK1; 10 µM 0 | PIK4CA; 10 µM 0 | PIK4CB; 10 µM 0 | PLK1; 10 µM 0 | PRKAA1; 10 µM 0 | PRKCA; 10 µM 0 | PTK2; 10 µM 0 | PTK2B; 10 µM 0 | RAF1; 10 µM 0 | [1]; 10 µM 0

Cc1cc(Nc2ncc(Cl)c(Nc3ccccc3S(=O)(=O)C(C)C)n2)c(OC(C)C)cc1C1CCNCC1 [Ceritinib]
inactive: MAPK1; 2.5 µM 0 | MAPK4; 2.5 µM 0 | MAPKAPK2; 2.5 µM 0 | MKNK1; 2.5 µM 0 | NTRK2; 2.5 µM 0 | NTRK3; 2.5 µM 0 | PAK4; 2.5 µM 0 | PBK; 2.5 µM 0 | PDGFRB; 2.5 µM 0 | PDK1; 2.5 µM 0 | PDPK1; 2.5 µM 0 | PIK4CA; 2.5 µM 0 | PIK4CB; 2.5 µM 0 | PLK1; 2.5 µM 0 | PRKAA1; 2.5 µM 0 | PRKCA; 2.5 µM 0 | PTK2; 2.5 µM 0 | PTK2B; 2.5 µM 0 | RAF1; 2.5 µM 0 | [1]; 2.5 µM 0
